Reference: doi:10.1101/2020.08.09.242891 (bioRxiv, 2020)

By UniProt entry, the sequences of proteins in these tests, tags left out.
UniProt Q9HC52: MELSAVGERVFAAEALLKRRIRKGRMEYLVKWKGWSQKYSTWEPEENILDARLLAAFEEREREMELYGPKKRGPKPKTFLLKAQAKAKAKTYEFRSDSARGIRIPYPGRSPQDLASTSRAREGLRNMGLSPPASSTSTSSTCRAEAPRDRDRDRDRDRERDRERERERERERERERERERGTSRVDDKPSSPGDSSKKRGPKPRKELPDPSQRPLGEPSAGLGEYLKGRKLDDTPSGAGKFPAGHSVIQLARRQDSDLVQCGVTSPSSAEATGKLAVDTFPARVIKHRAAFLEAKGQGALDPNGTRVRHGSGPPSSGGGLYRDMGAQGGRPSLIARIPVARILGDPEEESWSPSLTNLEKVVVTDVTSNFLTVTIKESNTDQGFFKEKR

Target: T1, FLAG-PKD1 (protein kinase D1) (UniProt Q15139)
T1 sequence: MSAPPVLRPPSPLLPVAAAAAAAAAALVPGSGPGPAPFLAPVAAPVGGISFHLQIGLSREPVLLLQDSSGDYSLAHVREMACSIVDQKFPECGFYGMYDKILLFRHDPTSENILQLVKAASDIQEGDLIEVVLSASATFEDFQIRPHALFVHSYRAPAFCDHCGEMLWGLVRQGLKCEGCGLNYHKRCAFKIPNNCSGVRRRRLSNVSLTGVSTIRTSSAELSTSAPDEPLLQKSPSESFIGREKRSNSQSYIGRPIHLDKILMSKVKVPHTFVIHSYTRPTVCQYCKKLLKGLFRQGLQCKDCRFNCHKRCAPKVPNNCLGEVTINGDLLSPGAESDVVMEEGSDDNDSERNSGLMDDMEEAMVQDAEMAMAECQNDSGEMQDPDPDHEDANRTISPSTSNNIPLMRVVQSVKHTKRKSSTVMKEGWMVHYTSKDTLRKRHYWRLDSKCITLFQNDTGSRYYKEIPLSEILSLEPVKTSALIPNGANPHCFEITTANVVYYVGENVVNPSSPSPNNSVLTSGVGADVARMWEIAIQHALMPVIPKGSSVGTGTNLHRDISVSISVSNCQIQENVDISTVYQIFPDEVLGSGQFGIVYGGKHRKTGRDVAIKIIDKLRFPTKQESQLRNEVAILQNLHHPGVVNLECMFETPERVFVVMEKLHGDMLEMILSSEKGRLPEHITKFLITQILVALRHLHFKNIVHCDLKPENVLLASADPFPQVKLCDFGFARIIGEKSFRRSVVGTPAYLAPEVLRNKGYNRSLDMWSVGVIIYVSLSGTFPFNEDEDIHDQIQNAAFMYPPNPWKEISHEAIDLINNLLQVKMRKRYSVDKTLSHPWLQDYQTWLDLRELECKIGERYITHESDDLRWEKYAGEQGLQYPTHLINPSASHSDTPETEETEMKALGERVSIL
Test: affinity purification with mass spectrometry

binding: binds
Substance: endogenous CBX8 (chromobox 8) (from UniProt Q9HC52 1-389)

These are yes or no findings as the source states them, for the method shown. In cells and extracts the contact can be indirect. Here binding means that the protein was enriched with, or labelled near, the bait; the list need not be complete. Where a sequence is shown, tags or fusion partners need not be part of it.
